Data as given in PubChem BioAssay AID1259405 (NCATS, 2018).

- Purpose: 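Knock-downs that lift recombinant protein yield in hamster ovary cells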 (primary screen)
- System: Chinese hamster CHO-K1 ovary cells with stable secreted eGFP expression
- Reagents: single siRNA against mouse genes, 0.8 pmol siRNA per well (2 µl of 400 nM stock)
- Duration: 3 days
- Read-out: 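Percent of the per-plate non-targeting control median for intracellular GFP per well by laser scanning cytometry and for cell viability by ATP luminescence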
- Direction: GFP, % of control: higher = more GFP per well, higher productivity; viability (ATP), % of control: higher = more viable cells (more ATP)
- Call rule: 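a knock-down is called active if GFP reaches 120% or more of non-targeting control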
Shown is one part, drawn at random, of about 50,000 deposited reagents. About 4,000 of them (8%) count as active. 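Mouse siRNA library applied to hamster cells; one well for each siRNA.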 The numbers tell different reagents against one gene apart.

| target gene | siRNA no. | GFP, % of control | viability (ATP), % of control | call |
| --- | --- | --- | --- | --- |
| Cd27 | 1 | 72.1 | 120 | inactive |
| Cd27 | 2 | 36.6 | 50.1 | inactive |
| Cd27 | 3 | 74.2 | 64.6 | inactive |
| Ccpg1 | 1 | 73.7 | 63.7 | inactive |
| Ccpg1 | 2 | 90.1 | 87 | inactive |
| Ccpg1 | 3 | 96.7 | 116 | inactive |
| 9230112E08Rik | 1 | 91.7 | 79.8 | inactive |
| 9230112E08Rik | 2 | 69.3 | 56.4 | inactive |
| 9230112E08Rik | 3 | 118 | 100 | inactive |
| Or2d2 | 1 | 81.9 | 64.3 | inactive |
| Or2d2 | 2 | 93.3 | 89.2 | inactive |
| Or2d2 | 3 | 45.3 | 20.7 | inactive |
| Afg2a | 1 | 79.9 | 95.8 | inactive |
| Afg2a | 2 | 88 | 46.3 | inactive |
| Il1rl1 | 1 | 53.2 | 34.8 | inactive |
| Il1rl1 | 2 | 86.6 | 59.1 | inactive |
| Il1rl1 | 3 | 89.6 | 59.6 | inactive |
| Perp | 1 | 93.1 | 67.6 | inactive |
| Perp | 2 | 110 | 66.3 | inactive |
| Perp | 3 | 29.7 | 44.7 | inactive |
| Plpp2 | 1 | 98 | 89.5 | inactive |
| Plpp2 | 2 | 124 | 81.7 | active |
| Plpp2 | 3 | 94.8 | 104 | inactive |
| Ddx39b | 1 | 103 | 76 | inactive |
| Ddx39b | 2 | 59.3 | 59.7 | inactive |
| Ddx39b | 3 | 60.1 | 82.5 | inactive |
| Mapk7 | 1 | 71.4 | 75.7 | inactive |
| Paqr8 | 1 | 80.5 | 65.2 | inactive |
| Paqr8 | 2 | 65.6 | 72.7 | inactive |
| Paqr8 | 3 | 58.5 | 83.1 | inactive |
| Il5 | 1 | 89.9 | 134 | inactive |
| Il5 | 2 | 63.2 | 67 | inactive |
| Cyp2g1 | 1 | 62.7 | 57 | inactive |
| Cyp2g1 | 2 | 96.1 | 45.9 | inactive |
| Cyp2g1 | 3 | 102 | 80.2 | inactive |
| Clta | 1 | 162 | 111 | active |
| Clta | 2 | 103 | 46.9 | inactive |
| Ing1 | 1 | 8.26 | 59 | inactive |
| Ing1 | 2 | 50.5 | 73.7 | inactive |
| Ing1 | 3 | 84.2 | 96.1 | inactive |
| Rfc1 | 1 | 87.8 | 91.4 | inactive |
| Rfc1 | 2 | 80 | 98.8 | inactive |
| Or52a33 | 1 | 96.3 | 51.6 | inactive |
| Or52a33 | 2 | 69.1 | 89.5 | inactive |
| Or52a33 | 3 | 56 | 91.4 | inactive |
| Snrnp35 | 1 | 24.9 | 35.4 | inactive |
| Snrnp35 | 2 | 75.8 | 64.2 | inactive |
| Snrnp35 | 3 | 105 | 94.8 | inactive |
| Vma12 | 1 | 168 | 90 | active |
| Vma12 | 2 | 43.2 | 46.8 | inactive |
| Vma12 | 3 | 92.2 | 78.8 | inactive |
| Ca5a | 1 | 108 | 104 | inactive |
| Ca5a | 2 | 65.3 | 66.4 | inactive |
| Pamr1 | 1 | 130 | 76.6 | active |
| Pamr1 | 2 | 23.1 | 31.9 | inactive |
| Pamr1 | 3 | 78.4 | 73.3 | inactive |
| Cdkn2aip | 1 | 121 | 100 | active |
| Cdkn2aip | 2 | 88.3 | 87.8 | inactive |
| Cdkn2aip | 3 | 90.9 | 69.9 | inactive |

Reagents above with an active call, once more:
| target gene | siRNA no. | GFP, % of control | viability (ATP), % of control | call |
| --- | --- | --- | --- | --- |
| Plpp2 | 2 | 124 | 81.7 | active |
| Clta | 1 | 162 | 111 | active |
| Vma12 | 1 | 168 | 90 | active |
| Pamr1 | 1 | 130 | 76.6 | active |
| Cdkn2aip | 1 | 121 | 100 | active |
